Measured values taken from patent publication US20240368239A1, “Novel bispecific protein and use thereof” (SL METAGEN, priority 2020, published 2024).
At least one compound was matched to its structure with a doubt left.

System: C57BL/6 mice, severe NASH-induced
Experiment: Severe NASH-induced animal model (STZ + 60% high-fat diet)
Format: in vivo
Conditions: compared to the negative control group

CC[C@H]1[C@@H](O)[C@@H]2[C@H](CC[C@]3(C)[C@@H]([C@H](C)CCC(=O)O)CC[C@@H]23)[C@@]2(C)CC[C@@H](O)C[C@@H]12 [OCA, obeticholic acid, reference compound]
NAFLD activity index: overall index equal to that of the negative control group
blood ALT: rather increased level
